PubChem BioAssay AID504793, Drosophila RNAi Screening Center – 2011

Assay: 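Whole-genome screen for parts of the DNA damage checkpoint at G2/M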 (primary screen)
Cells: Drosophila S2R+ cells
Reagent: long dsRNA against Drosophila genes, about 0.25 µg dsRNA per well
Timing: 4 days of dsRNA, then 4 hours of drug before read-out
Treatment: doxorubicin 0.5 µM for 4 hours to cause double-strand breaks, in cells also given a low, harmless dose of dsRNA against nbs to sensitise the assay
Detection: 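Mitotic index as the number of phospho-histone H3-positive cells in each well following doxorubicin, given as raw counts without normalisation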
Reading the numbers: mitotic cells: higher = more cells in mitosis, weaker G2 arrest
Call rule: 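Genes are called active only when high mitotic counts were reproduced with independent dsRNAs and mitosis was checked for delay without damage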
Meaning of the calls: active = confirmed in follow-up tests; inactive = not confirmed
The screen tested about 23,000 reagents; below is an unselected part of those that have a named target and a result. Of all reagents, 62 (0.27%) got an active call. 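Calls come from follow-up tests whose scores are not deposited, so confirmed genes may have low counts here; counts are not normalised per plate.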 Raw values are not corrected between plates. Names joined by + are all predicted targets of the reagent.

target	dsRNA	mitotic cells, replicate 1	mitotic cells, replicate 2	call
CG40045	DRSC21232	5	12	inactive
dom (domino)	DRSC04558	11		inactive
dom (domino)	DRSC04559	4		inactive
dom (domino)	DRSC29669	6		inactive
CG4953	DRSC02792	9		inactive
stmA (stambha A)	DRSC07593	3		inactive
stmA (stambha A)	DRSC22179	7		inactive
dpp (decapentaplegic)	DRSC00118	6		inactive
dpp (decapentaplegic)	DRSC00121	2		inactive
dpp (decapentaplegic)	DRSC00813	3		inactive
dpp (decapentaplegic)	DRSC26853	7		inactive
pad (poils au dos)	DRSC14227	7		inactive
pad (poils au dos)	DRSC26048	6		inactive
Duox (Dual oxidase)	DRSC27209	8		inactive
gro (groucho)	DRSC16962	9		inactive
Pld (Phospholipase D)	DRSC04854	7		inactive
Pld (Phospholipase D)	DRSC24641	5		inactive
wit (wishful thinking)	DRSC08741	9		inactive
wit (wishful thinking)	DRSC26091	7		inactive
CG7231	DRSC03034	4		inactive
GstE12 (Glutathione S transferase E12)	DRSC04047	13		inactive
GstE12 (Glutathione S transferase E12)	DRSC27281	9		inactive
CG13231	DRSC06351	3		inactive
CG13231	DRSC26554	5		inactive
bip1	DRSC11327	5		inactive
mus81	DRSC18180	18		inactive
mus81	DRSC18644	13		inactive
DUBAI + Tmem18	DRSC05344	5		inactive
CG13148	DRSC06275	2		inactive
Ddc (Dopa decarboxylase)	DRSC03314	3		inactive
Teh1 (tipE homolog 1)	DRSC14544	4		inactive
CG1638	DRSC15132	6		inactive
CG1638	DRSC29986	7		inactive
Veneno	DRSC16537	9		inactive
rno (rhinoceros)	DRSC08584	10		inactive
Prosbeta4R2 (Proteasome beta4 subunit-related 2)	DRSC00503	5		inactive
Prosbeta4R2 (Proteasome beta4 subunit-related 2)	DRSC28235	4		inactive
CG16753	DRSC08489	5		inactive

The list goes on (5 carried over from the part before).
target	dsRNA	mitotic cells, replicate 1	mitotic cells, replicate 2	call
Veneno	DRSC16537	9		inactive
rno (rhinoceros)	DRSC08584	10		inactive
Prosbeta4R2 (Proteasome beta4 subunit-related 2)	DRSC00503	5		inactive
Prosbeta4R2 (Proteasome beta4 subunit-related 2)	DRSC28235	4		inactive
CG16753	DRSC08489	5		inactive
CycE (Cyclin E)	DRSC03295	5		inactive
CycE (Cyclin E)	DRSC03296	4		inactive
Tctp (Translationally controlled tumor protein)	DRSC15649	7		inactive
Tctp (Translationally controlled tumor protein)	DRSC29100	6		inactive
CG15529	DRSC15066	12		inactive
CG15572	DRSC24999	9		inactive
vito (viriato)	DRSC21781	14		inactive
vito (viriato)	DRSC24852	6		inactive
GstE7 (Glutathione S transferase E7)	DRSC06677	11		inactive
dj-1beta	DRSC14599	9		inactive
dj-1beta	DRSC25743	5		inactive
Vajk2	DRSC02540	4		inactive
Vajk2	DRSC25275	3		inactive
CG15425	DRSC00440	4		inactive
CG15425	DRSC24897	5		inactive
Pgant1 (Polypeptide N-Acetylgalactosaminyltransferase 1)	DRSC07095	4		inactive
casp (caspar)	DRSC07164	9		inactive
Stat92E	DRSC16870	9		inactive
Stat92E	DRSC37655	11		inactive
PIG-Wa (Phosphatidylinositol glycan anchor biosynthesis class W a)	DRSC00728	7		inactive
BBS4 (Bardet-Biedl syndrome 4)	DRSC06352	17		inactive
BBS4 (Bardet-Biedl syndrome 4)	DRSC28073	2		inactive
CG14644	DRSC12230	1		inactive
bocks (bocksbeutel)	DRSC16489	11		inactive
CG32855	DRSC13131	19		inactive
Obp99b (Odorant-binding protein 99b)	DRSC16264	6		inactive
Obp99b (Odorant-binding protein 99b)	DRSC27754	3		inactive
Nup214 (Nucleoporin 214kD)	DRSC04421	2		inactive
Ubqn (Ubiquilin)	DRSC19581	1		inactive
Ubqn (Ubiquilin)	DRSC24055	5		inactive
CG31898	DRSC01019	7		inactive
CG3277	DRSC00588	4		inactive
CG16799	DRSC06626	4		inactive
CG16799	DRSC21553	10		inactive
CG32820 + CG17450 + CG32819	DRSC21803	10		inactive
CG32820 + CG17450 + CG32819	DRSC22812	9		inactive
CG32820 + CG17450 + CG32819	DRSC27791	1		inactive
CG10336	DRSC02037	6		inactive
CG17760	DRSC06694	9		inactive
CG17760	DRSC25493	7		inactive
robo1 (roundabout 1)	DRSC04712	1		inactive
ninaC (neither inactivation nor afterpotential C)	DRSC03579	7		inactive
ninaC (neither inactivation nor afterpotential C)	DRSC29875	5		inactive
Root (Rootletin)	DRSC15972	8		inactive
Trm7-34 (tRNA methyltransferase 7-34)	DRSC16171	12		inactive
lncRNA:sphinx + ATPsynF	DRSC17191	5		inactive
psidin (phagocyte signaling impaired)	DRSC15660	8		inactive
CG10513	DRSC14248	5		inactive
ATPsynO (ATP synthase, oligomycin sensitivity conferring protein)	DRSC16780	8		inactive
ATPsynO (ATP synthase, oligomycin sensitivity conferring protein)	DRSC26306	3		inactive
CG14275	DRSC02379	7		inactive
CG14275	DRSC27588	3		inactive
Sid (Stress induced DNase)	DRSC16588	6		inactive
Sid (Stress induced DNase)	DRSC26318	4		inactive
Psn (Presenilin)	DRSC11743	7		inactive
Rbp6 (RNA-binding protein 6)	DRSC10072	2		inactive
Rbp6 (RNA-binding protein 6)	DRSC10073	4		inactive
CenG1A (Centaurin gamma 1A)	DRSC02538	4		inactive
CenG1A (Centaurin gamma 1A)	DRSC03505	4		inactive
CenG1A (Centaurin gamma 1A)	DRSC03506	4		inactive
CenG1A (Centaurin gamma 1A)	DRSC28029	8		inactive
CG13954	DRSC06442	4		inactive
CG13954	DRSC27499	6		inactive
Jon65Aiv (Jonah 65Aiv)	DRSC10644	10		inactive
Jon65Aiv (Jonah 65Aiv)	DRSC25179	14		inactive
CG7387	DRSC10833	9		inactive
MED20 (Mediator complex subunit 20)	DRSC03463	6		inactive
mRpL9 (mitochondrial ribosomal protein L9)	DRSC15678	8		inactive
mRpL9 (mitochondrial ribosomal protein L9)	DRSC27528	6		inactive
CG5608	DRSC15841	8		inactive
NimC1 (Nimrod C1)	DRSC01879	6		inactive
CG7763	DRSC07043	7		inactive
